This assay has as its target human CaV2.3 α1E subunit (CACNA1E) (human) (UniProt Q15878). The assay can be described thus: cryo-EM structure; CaV2.3-α2δ1-β1 complex co-expressed in HEK 293-F, solubilised in DDM/CHS, purified on Streptactin beads and by SEC in 20 mM HEPES pH 7.5, 150 mM NaCl, 5 mM β-ME, 0.01% GDN; 3.1 Å map; both purified. (Size exclusion chromatography separates by hydrodynamic size, large species first.)

By UniProt entry, the sequences of proteins in these tests, tags left out. Where a name states a change or a piece, a line headed by the entry shows the natural chain unless it says otherwise. Residues count along the entry.
UniProt Q15878: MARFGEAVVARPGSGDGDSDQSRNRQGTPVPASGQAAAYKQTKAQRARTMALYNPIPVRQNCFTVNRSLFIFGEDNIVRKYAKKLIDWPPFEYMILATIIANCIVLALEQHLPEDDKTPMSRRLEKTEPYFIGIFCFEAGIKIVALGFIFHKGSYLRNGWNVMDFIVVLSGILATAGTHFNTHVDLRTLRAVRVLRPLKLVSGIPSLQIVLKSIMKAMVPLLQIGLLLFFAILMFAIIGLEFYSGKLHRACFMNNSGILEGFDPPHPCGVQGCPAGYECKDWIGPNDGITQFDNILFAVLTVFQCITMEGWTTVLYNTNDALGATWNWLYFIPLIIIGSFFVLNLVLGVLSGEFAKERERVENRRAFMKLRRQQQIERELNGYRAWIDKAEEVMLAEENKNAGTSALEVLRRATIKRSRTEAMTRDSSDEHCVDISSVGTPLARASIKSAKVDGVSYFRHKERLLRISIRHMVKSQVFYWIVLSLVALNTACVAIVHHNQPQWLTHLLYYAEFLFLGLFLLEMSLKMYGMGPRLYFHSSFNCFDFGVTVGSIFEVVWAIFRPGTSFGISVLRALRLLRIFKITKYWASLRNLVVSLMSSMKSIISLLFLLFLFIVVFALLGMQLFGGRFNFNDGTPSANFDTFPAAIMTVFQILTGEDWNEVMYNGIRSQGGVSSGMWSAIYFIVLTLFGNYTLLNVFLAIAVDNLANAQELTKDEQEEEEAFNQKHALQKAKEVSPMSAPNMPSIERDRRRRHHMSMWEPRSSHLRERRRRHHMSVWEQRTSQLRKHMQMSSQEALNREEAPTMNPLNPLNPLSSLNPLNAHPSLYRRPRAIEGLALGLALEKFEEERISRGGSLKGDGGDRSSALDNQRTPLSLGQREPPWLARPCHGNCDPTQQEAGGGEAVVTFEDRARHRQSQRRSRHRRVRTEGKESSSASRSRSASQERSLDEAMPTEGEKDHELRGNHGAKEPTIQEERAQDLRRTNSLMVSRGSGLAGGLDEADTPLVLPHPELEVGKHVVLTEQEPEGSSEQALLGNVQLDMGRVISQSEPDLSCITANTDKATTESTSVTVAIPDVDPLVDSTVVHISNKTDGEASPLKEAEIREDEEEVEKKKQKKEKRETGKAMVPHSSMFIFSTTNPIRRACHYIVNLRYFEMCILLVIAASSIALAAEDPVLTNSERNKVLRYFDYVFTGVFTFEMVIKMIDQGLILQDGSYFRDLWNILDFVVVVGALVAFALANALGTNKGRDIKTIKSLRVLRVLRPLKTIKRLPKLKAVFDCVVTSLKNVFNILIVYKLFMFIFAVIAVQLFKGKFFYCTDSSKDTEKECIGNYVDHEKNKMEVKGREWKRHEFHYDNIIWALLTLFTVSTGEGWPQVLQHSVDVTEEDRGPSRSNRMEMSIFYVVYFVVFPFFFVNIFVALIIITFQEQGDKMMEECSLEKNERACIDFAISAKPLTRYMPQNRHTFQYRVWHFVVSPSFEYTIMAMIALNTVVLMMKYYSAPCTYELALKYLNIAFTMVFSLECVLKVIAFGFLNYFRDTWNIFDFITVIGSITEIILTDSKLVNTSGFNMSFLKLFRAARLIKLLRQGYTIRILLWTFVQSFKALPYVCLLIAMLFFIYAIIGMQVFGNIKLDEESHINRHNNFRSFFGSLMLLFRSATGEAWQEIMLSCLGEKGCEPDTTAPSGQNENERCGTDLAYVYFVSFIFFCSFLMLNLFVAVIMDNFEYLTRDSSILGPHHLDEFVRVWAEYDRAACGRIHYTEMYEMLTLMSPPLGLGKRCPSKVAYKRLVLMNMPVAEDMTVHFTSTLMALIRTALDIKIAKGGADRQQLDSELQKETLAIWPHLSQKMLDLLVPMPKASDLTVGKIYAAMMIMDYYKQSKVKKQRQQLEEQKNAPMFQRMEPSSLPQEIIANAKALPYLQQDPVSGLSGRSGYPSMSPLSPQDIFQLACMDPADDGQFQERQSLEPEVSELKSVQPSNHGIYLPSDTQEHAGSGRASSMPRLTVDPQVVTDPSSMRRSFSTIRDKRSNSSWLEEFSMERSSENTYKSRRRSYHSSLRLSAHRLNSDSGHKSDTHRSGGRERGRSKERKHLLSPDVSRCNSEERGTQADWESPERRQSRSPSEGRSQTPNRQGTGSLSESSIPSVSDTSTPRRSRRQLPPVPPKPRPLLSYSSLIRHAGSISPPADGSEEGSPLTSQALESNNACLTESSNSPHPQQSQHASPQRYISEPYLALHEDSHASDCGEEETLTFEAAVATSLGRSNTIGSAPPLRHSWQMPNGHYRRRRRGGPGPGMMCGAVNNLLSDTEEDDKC
UniProt P54289, residues 25-1103: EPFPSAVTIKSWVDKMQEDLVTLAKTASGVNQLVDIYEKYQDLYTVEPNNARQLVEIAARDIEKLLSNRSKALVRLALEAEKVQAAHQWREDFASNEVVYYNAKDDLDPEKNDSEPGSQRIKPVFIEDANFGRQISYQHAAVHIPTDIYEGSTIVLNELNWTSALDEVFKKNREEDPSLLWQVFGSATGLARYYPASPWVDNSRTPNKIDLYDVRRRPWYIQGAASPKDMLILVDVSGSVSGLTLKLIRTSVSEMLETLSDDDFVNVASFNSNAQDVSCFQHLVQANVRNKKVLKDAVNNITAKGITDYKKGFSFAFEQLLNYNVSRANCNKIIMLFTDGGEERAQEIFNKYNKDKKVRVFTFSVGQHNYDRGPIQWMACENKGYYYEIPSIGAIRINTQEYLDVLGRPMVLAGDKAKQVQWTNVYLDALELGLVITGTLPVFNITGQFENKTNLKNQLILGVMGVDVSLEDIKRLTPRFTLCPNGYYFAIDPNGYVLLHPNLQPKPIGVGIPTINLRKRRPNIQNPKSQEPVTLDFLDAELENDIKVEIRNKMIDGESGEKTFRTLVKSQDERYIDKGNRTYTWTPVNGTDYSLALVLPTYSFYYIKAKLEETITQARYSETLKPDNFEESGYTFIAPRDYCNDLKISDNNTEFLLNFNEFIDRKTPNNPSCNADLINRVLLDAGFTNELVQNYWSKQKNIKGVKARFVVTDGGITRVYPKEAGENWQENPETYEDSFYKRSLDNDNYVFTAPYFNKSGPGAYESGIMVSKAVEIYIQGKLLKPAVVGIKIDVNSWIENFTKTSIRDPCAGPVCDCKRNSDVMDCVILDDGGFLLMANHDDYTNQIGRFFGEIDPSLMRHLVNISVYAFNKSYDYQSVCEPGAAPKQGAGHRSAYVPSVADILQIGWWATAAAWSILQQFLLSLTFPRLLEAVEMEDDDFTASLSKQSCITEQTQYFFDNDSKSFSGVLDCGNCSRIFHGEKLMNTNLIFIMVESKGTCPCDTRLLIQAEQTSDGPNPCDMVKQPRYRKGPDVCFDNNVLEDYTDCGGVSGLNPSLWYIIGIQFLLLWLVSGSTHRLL

No constants are given. Whether binding was seen depends on the method and setting. Some results given as binding are weak or reduced against the parent protein; the word gives no strength.

Take “human α2δ1 subunit (CACNA2D1) (from UniProt P54289 25-1103)”: the binding entry is given as “binds”.

(Values after article PMC9889812.)
